Results taken from PubChem BioAssay AID1487 (National Center for Advancing Translational Sciences (NCATS), 2009).
Some of the results follow. Further columns of the screen follow, without active or inactive calls. Compounds called inactive in the main read-out are mostly missing here. The note in brackets gives the kind of curve behind each potency; many fits are weak.

Experiment: qHTS Assay for Modulators of Lamin A Splicing
Conditions: HeLa LMNA splicing GFP/RFP minigene ratio, 48 h
Outline: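 S3 HeLa cells stably expressing lamin A-EGFP splicing minigene plus DsRed2, 600 cells/well, 48 h compound exposure at 37C. Laser-scanning cytometry; analysed as GFP (500-530 nm)/RFP (575-640 nm) total intensity ratio; 0.5% DMSO vehicle.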

[1] = measured here: GFP splicing reporter channel
[2] = measured here: RFP viability control channel

Compound | AC50 [1] | AC50 [2]
C/C=C/c1ccc(OCCCCNCc2ccco2)c(OC)c1 | 2.51 µM [falling, partial curve] | 
Cc1ccc(S(=O)(=O)c2cc3ccccc3oc2=Nc2ccc3c(c2)OCCO3)cc1 | 11.2 µM [rising, single point] | 
Cc1ccc(Nc2nnc(C3C(=O)N(C)C4(C)CC3c3cc(Br)ccc3O4)s2)cc1 (stereo not given) |  | 6.31 µM [rising, full curve, poor fit]
COc1ccc(/C=C/C(=O)c2cc(F)ccc2OC(=O)c2ccccc2C)cc1OC | 2.24 µM [rising, full curve] | 2.51 µM [rising, partial curve]
COc1ccc(NC(=O)c2c(-c3ccccc3Cl)noc2C)c(OC)c1 |  | 10 µM [rising, partial curve, poor fit]
O=C(/C=C\C=C/c1ccc2c(c1)OCO2)N1CCCCC1 | 0.282 µM [falling, full curve] | 0.631 µM [falling, full curve, poor fit]
CCOC(=O)CN1C(=O)Nc2ccc(Br)cc2C1c1ccccc1 (stereo not given) | 0.0158 µM [rising, full curve, poor fit] | 
CC(C)CCNC(=O)c1ccc(OC2CCN(S(=O)(=O)N(C)C)CC2)cc1 | 12.6 µM [falling, partial curve] | 20 µM [falling, partial curve, poor fit]
O=C(OCn1ncc(Cl)c(Cl)c1=O)c1ccc(F)cc1 | 6.31 µM [falling, full curve] | 3.98 µM [falling, full curve]
COc1ccccc1N1CCN(C(=O)CCc2c[nH]c3ccccc23)CC1 | 0.00316 µM [falling, full curve, poor fit] | 0.00708 µM [falling, full curve]
CC(O)CNCCCCOc1ccc(OCc2ccccc2)cc1 (stereo not given) | 12.6 µM [falling, partial curve, poor fit] | 
O=C(Nc1ccc(Cl)cc1)c1cc(S(=O)(=O)N2CCOCC2)cs1 |  | 12.6 µM [rising, partial curve]
COC(=O)c1ccccc1NC(=O)CSc1nnnn1-c1ccc(C)cc1C |  | 12.6 µM [rising, single point]
Cc1ccc(Nc2cc(C)nc(N3CCOCC3)n2)cc1 | 0.794 µM [falling, full curve] | 0.794 µM [falling, full curve]
O=C(C1CCCN(S(=O)(=O)c2cccc3nonc23)C1)N1CCN(c2ccccc2Cl)CC1 (stereo not given) | 11.2 µM [rising, partial curve] | 22.4 µM [rising, single point]
O=C(c1nc2ccccn2c1CN1CCN(c2ccccc2O)CC1)N1CCCC1 |  | 7.08 µM [falling, full curve, poor fit]
CCOC(=O)C1(Cc2ccccc2C)CCCN(C(=O)CCc2cccnc2)C1 (stereo not given) | 0.00447 µM [rising, full curve, poor fit] | 
CCn1c(CNc2ccc(F)cc2)nnc1SCC(=O)N1CCCc2ccccc21 |  | 12.6 µM [rising, single point]
CCN(CC)C(=S)SCC(=O)c1ccc(Br)cc1 |  | 35.5 µM [rising, single point]
O=c1nc(-c2ccccc2)n(-c2ccccc2)[nH]1 |  | 35.5 µM [rising, single point]
Cc1ccc(S(=O)(=O)N(CC(=O)N=Nc2c(O)[nH]c3ccccc23)c2cccc(C)c2)cc1 | 11.2 µM [falling, partial curve] | 15.8 µM [falling, single point]
OC(COCc1ccc2c(c1)OCO2)CN1CCN(Cc2ccccc2)CC1 (stereo not given) |  | 0.316 µM [falling, partial curve]
CC(C)Oc1cccc(C(=O)Nc2ccc(CN3CCOCC3)cc2)c1 |  | 12.6 µM [rising, partial curve, poor fit]
CCOC(=O)C1CCN(C(=O)Cc2c(C(=O)O)n(C)c3ccccc23)CC1 | 5.62 µM [rising, single point] | 5.62 µM [rising, single point]
Cc1nnc(SCc2cc(=O)n3cccc(C)c3n2)s1 | 0.708 µM [rising, partial curve, poor fit] | 
CC(=O)C1=C(C)NC(=O)CC1c1ccc(Br)cc1 (stereo not given) |  | 0.0398 µM [falling, full curve, poor fit]
Clc1ccc(Cn2nc(-c3ccccc3)nc2-c2ccccc2)cc1 |  | 25.1 µM [rising, single point]

Rewritten with each value named: 4 of the compounds above.
Cc1ccc(Nc2nnc(C3C(=O)N(C)C4(C)CC3c3cc(Br)ccc3O4)s2)cc1 (stereo not given)
  AC50 [2]: 6.31 µM [rising, full curve, poor fit]
CCOC(=O)CN1C(=O)Nc2ccc(Br)cc2C1c1ccccc1 (stereo not given)
  AC50 [1]: 0.0158 µM [rising, full curve, poor fit]
Cc1ccc(S(=O)(=O)N(CC(=O)N=Nc2c(O)[nH]c3ccccc23)c2cccc(C)c2)cc1
  AC50 [1]: 11.2 µM [falling, partial curve]
  AC50 [2]: 15.8 µM [falling, single point]
CC(C)Oc1cccc(C(=O)Nc2ccc(CN3CCOCC3)cc2)c1
  AC50 [2]: 12.6 µM [rising, partial curve, poor fit]

Next part

Compound | AC50 [1] | AC50 [2]
CC(C)C(c1nnnn1C(C)(C)C)N1CCC(Cc2ccccc2)CC1 (stereo not given) | 10 µM [rising, partial curve] | 11.2 µM [rising, single point]
CSc1ccc(OC2CCCCC2NS(=O)(=O)c2ccccc2)cc1 (stereo not given) |  | 15.8 µM [rising, single point]
CCCC(CCC)C(=O)Nc1cccc(-c2nc3cccnc3s2)c1C | 4.47 µM [falling, partial curve] | 0.112 µM [falling, full curve, poor fit]
COc1ccc(-c2nc(C(N)=O)c3[nH]c(=O)n(-c4cccc(Cl)c4)c3n2)cc1OC | 35.5 µM [falling, single point] | 35.5 µM [falling, single point]
O=c1c(O)c(-c2ccc(O)c(O)c2)oc2cc(O)ccc12 | 12.6 µM [falling, single point] | 22.4 µM [falling, partial curve]
CCN(CC)CCC[C@H](C)Nc1c2ccc(Cl)cc2nc2ccc(OC)cc12 | 14.1 µM [falling, single point] | 8.91 µM [falling, single point]
Cc1nc2ccn(Cc3ccco3)c(=O)c2cc1C(=O)NCc1ccccc1F |  | 0.501 µM [rising, full curve]
COc1cccc(NC(=O)c2cc(C(=O)Nc3cccc(OC)c3)n(C)n2)c1 |  | 3.55 µM [rising, single point]
Cn1cc(Br)c(C(=O)NC2C3CC4CC(C3)CC2C4)n1 (stereo not given) |  | 35.5 µM [rising, single point]
O=S(=O)(Nc1nc2ccccc2nc1Nc1ccc(N2CCOCC2)cc1)c1cc(Cl)ccc1Cl | 3.16 µM [rising, single point] | 3.55 µM [rising, single point]
COc1ccc(N2C(=O)CC(NNC(=O)c3ccco3)C2=O)cc1 (stereo not given) | 5.62 µM [rising, partial curve] | 5.62 µM [rising, partial curve]
O=C(NCCC1=CCCCC1)C(=O)NCC1OCCCN1S(=O)(=O)c1ccccc1 (stereo not given) |  | 35.5 µM [rising, single point]
COc1ccc(NS(=O)(=O)c2ccc3c(c2)CCC(=O)N3)c(OC)c1 | 20 µM [rising, partial curve, poor fit] | 
c1ccc(OCc2nn3c(-c4ccccn4)nnc3s2)cc1 | 17.8 µM [rising, single point] | 25.1 µM [rising, single point]
O=C(Nc1ccc(-c2nnc(-c3ccccc3)o2)cc1)C1CCCO1 (stereo not given) |  | 0.224 µM [falling, full curve, poor fit]
CCN(CC)c1ccc(-n2c(C)c(C(C)=O)c(C(C)=O)c2C)cc1 | 15.8 µM [rising, partial curve] | 15.8 µM [rising, partial curve]
Cn1c(C(=O)N2CCCc3ccccc32)cc2sccc21 | 0.316 µM [rising, full curve, poor fit] | 0.251 µM [rising, full curve, poor fit]
CCNc1nnc(CSc2nc3ccccc3s2)s1 |  | 35.5 µM [rising, partial curve]
CC(C)Cn1c(N)c(C(=O)CSc2ccc3c(c2)OCCO3)c(=O)n(C)c1=O |  | 3.98 µM [falling, partial curve]
N#C/C(=N/O)c1nc(-c2ccc(F)cc2)cs1 | 22.4 µM [rising, partial curve, poor fit] | 35.5 µM [rising, single point]
CCOC(=O)Nc1nc(-c2ccccc2)c(C(=O)c2ccc(Cl)cc2)s1 | 3.98 µM [rising, single point] | 1.26 µM [rising, partial curve]
CC(C)(C)N(Cc1cc2ccccc2[nH]c1=O)C(=O)C1CCCCC1 | 0.0891 µM [falling, full curve] | 0.0708 µM [falling, full curve]
Cc1c(/C=N/O)c2ccccn2c1C=O | 3.98 µM [falling, single point] | 3.16 µM [falling, single point]
CCOC(=O)C1CCN(C(=O)c2sc3nc(-c4ccc(F)cc4)cn3c2C)CC1 | 5.62 µM [rising, partial curve] | 11.2 µM [rising, partial curve]
O=C(Nc1cccc2c1CCCC2)c1cc([N+](=O)[O-])ccc1Cl | 31.6 µM [falling, single point] | 15.8 µM [falling, single point]
CCOC(=O)N1N=C(C)CC1(O)c1ccc(Cl)cc1 (stereo not given) | 35.5 µM [falling, partial curve, poor fit] | 
COc1ccc(N(CC(=O)Nc2ccc3c(c2)OCCO3)S(C)(=O)=O)c(OC)c1 | 0.355 µM [falling, partial curve] | 2.51 µM [falling, single point]
